{
  "sequences": {"note": "Protein sequences, listed by entry. Tags and fused reporters are not part of them.", "UniProt P18054, whole entry, looked up": "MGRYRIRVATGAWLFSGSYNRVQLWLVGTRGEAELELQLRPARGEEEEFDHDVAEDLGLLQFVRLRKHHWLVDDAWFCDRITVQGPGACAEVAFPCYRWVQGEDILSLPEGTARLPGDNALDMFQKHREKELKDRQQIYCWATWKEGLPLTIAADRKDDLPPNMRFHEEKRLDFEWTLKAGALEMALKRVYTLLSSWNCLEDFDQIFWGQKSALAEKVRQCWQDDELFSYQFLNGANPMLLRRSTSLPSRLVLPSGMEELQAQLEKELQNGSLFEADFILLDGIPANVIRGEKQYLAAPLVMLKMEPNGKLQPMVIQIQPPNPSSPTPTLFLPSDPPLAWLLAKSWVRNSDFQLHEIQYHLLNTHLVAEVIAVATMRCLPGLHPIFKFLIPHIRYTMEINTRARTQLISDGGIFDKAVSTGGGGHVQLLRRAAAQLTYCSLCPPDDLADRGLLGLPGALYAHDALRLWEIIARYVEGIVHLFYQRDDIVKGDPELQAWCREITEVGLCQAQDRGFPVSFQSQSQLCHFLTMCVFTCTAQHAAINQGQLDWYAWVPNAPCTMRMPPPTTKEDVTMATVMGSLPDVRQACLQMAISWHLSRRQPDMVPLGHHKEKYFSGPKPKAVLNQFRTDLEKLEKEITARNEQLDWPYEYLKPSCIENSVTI"},
  "source": "PubChem BioAssay AID1671190",
  "about": "(National Center for Advancing Translational Sciences (NCATS), 2021)",
  "note": "Hit rate of the full screen: of about 580,000 compounds, about 6,100 (1.1%) were called active. Inconclusive means that the source gave no clear call. Such entries were picked first, then a sample of the others. Calls follow the shape of the dose curve; as a rule, active = well fitted inhibition curve with a large enough effect; inconclusive = small, poorly fitted or top-dose-only effect, or another doubt; inactive = no such curve, though single readings can be large or run the other way. Potencies of inconclusive entries are doubtful fits and often do not repeat. Potency is read from the fitted curve at half-maximal effect.",
  "data": [
    {"molecular_target": "Polyunsaturated fatty acid lipoxygenase ALOX12 (Homo sapiens) (UniProt P18054)", "experiment": "Primary qHTS assay for inhibitors of human arachidonate 12S-lipoxygenase (ALOX12): Round 2", "conditions": "purified 12hLO, xylenol orange hydroperoxide absorbance; series mostly up to 108 µM", "procedure,_shortened": "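Purified human 12hLO at 150 nM in 25 mM Hepes, 0.01% Triton X-100, pH 7.0, preincubated 15 min at room temperature with compound. Reaction started with 40 uM arachidonic acid, 30 min at room temperature. Hydroperoxide measured by Fe-xylenol orange, 573/405 nm absorbance ratio.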", "values": [
      {"smiles": "Cc1cc(Nc2cc(F)ccc2C)n2nc(C)nc2n1", "Potency": "inconclusive: 39.8 µM [inhibitor, partial curve, poor fit]"},
      {"smiles": "Fc1ccccc1/C=N/n1cc(-c2ccccc2)[nH]c1=S", "Potency": "inconclusive: 35.5 µM [inhibitor, partial curve, poor fit]"},
      {"smiles": "COc1ccc(S(=O)(=O)Oc2ccc3c(c2)O/C(=C\\c2cc(OC)ccc2OC)C3=O)cc1", "Potency": "inactive"},
      {"smiles": "O=C(Nc1ccccc1Oc1cccnc1)C1CCCN(C/C=C/c2ccc(F)cc2)C1", "note": "(stereo not drawn)", "Potency": "inactive"},
      {"smiles": "O=C(NC(=S)NC(=O)c1ccccc1F)c1ccccc1F", "Potency": "inconclusive: 44.7 µM [inhibitor, partial curve, poor fit]"},
      {"smiles": "CC(C)Oc1ccccc1C1CC(=O)Nc2cc3c(cc21)OCCO3", "note": "(stereo not drawn)", "Potency": "inconclusive: 3.98 µM [inhibitor, full curve, poor fit]"},
      {"smiles": "C/C(CCC1CC(C)OC1=O)=N/Nc1nc(-c2ccccc2)cs1", "note": "(stereo not drawn)", "Potency": "inconclusive: 44.7 µM [inhibitor, partial curve, poor fit]"},
      {"smiles": "COc1ccc(OC)c(S(=O)(=O)N(C)CC(=O)Nc2ccccc2OC)c1", "Potency": "inconclusive: 39.8 µM [inhibitor, partial curve, poor fit]"},
      {"smiles": "O=C(NC(=S)NC1C2CC3CC(C2)CC1C3)c1ccccc1", "note": "(stereo not drawn)", "Potency": "inconclusive: 4.47 µM [inhibitor, full curve, poor fit]"},
      {"smiles": "C=CCOC(=O)C1=C(C)N=c2s/c(=C3\\C(=O)N(CC(=O)O)c4ccccc43)c(=O)n2C1c1ccc(OC)cc1", "note": "(stereo not drawn)", "Potency": "inconclusive: 44.7 µM [inhibitor, partial curve, poor fit]"},
      {"smiles": "O=C1/C(=C/c2ccc(O)c(O)c2)Oc2cc(O)ccc21", "Potency": "active: 11.2 µM"},
      {"smiles": "Cc1cc(C)c(C#N)c(SCC(=O)Nc2ccccc2C(N)=O)n1", "Potency": "inactive"},
      {"smiles": "CCC1C(=O)N=C(SCC(=O)Nc2nc3ccccc3s2)NC1=O", "note": "(stereo not drawn)", "Potency": "inconclusive: 1.78 µM [inhibitor, single point]"},
      {"smiles": "N#Cc1ccc(Cn2c(=O)n(CCC(=O)NCCc3ccc(Cl)cc3)c(=O)c3sccc32)cc1", "Potency": "inactive"},
      {"smiles": "Nc1cc([N+](=O)[O-])ccc1Nc1ccccc1", "Potency": "inconclusive: 50.1 µM [inhibitor, partial curve, poor fit]"},
      {"smiles": "Cc1ccccc1N/C(SCc1ccc(Cl)cc1)=C(/C#N)C(N)=O", "Potency": "active: 20 µM"},
      {"smiles": "Cc1ccc(S(=O)(=O)Nc2ccccc2N=Cc2c(F)c(F)c(F)c(F)c2F)cc1", "Potency": "inactive"},
      {"smiles": "O=S(=O)(Nc1cc2nc3ccccc3nc2n1Cc1ccccc1)c1ccc(Cl)cc1", "Potency": "active: 44.7 µM"},
      {"smiles": "CCc1ccc(CN(C)S(=O)(=O)c2cccc(Br)c2)cc1", "Potency": "inconclusive: 1.78 µM [inhibitor, full curve, poor fit]"},
      {"smiles": "CN(Cc1ccc(F)cc1)C(=O)c1ccc(Cl)c(S(=O)(=O)NC2CC2)c1", "Potency": "inactive"},
      {"smiles": "O=[N+]([O-])c1ccc(Nc2ccccc2O)c([N+](=O)[O-])c1", "Potency": "inconclusive: 44.7 µM [inhibitor, partial curve, poor fit]"},
      {"smiles": "CCNC(=O)NC(=O)C(C)Sc1cc(C)c2cccc(C)c2n1", "note": "(stereo not drawn)", "Potency": "inconclusive: 44.7 µM [inhibitor, partial curve, poor fit]"},
      {"smiles": "O=C(NC1CCCC1)C1CCCN(c2ncnc3nc[nH]c23)C1", "note": "(stereo not drawn)", "Potency": "inactive"},
      {"smiles": "Cc1cc(C(=O)COC(=O)Cc2n[nH]c(=O)c3ccccc23)c(C)n1CC1CCCO1", "note": "(stereo not drawn)", "Potency": "inactive"},
      {"smiles": "O=C(Cc1ccc(Cl)cc1)N/N=C1\\CCCc2ccccc21", "Potency": "inactive"},
      {"smiles": "CCOc1ccc2c(c1)C(NC(C)=O)C(=O)N2CCOc1ccccc1", "note": "(stereo not drawn)", "Potency": "inconclusive: 39.8 µM [inhibitor, partial curve, poor fit]"},
      {"smiles": "FC(F)(F)C1=Nc2cccc3cccc(c23)N1", "Potency": "inconclusive: 20 µM [inhibitor, full curve, poor fit]"},
      {"smiles": "COc1ccc(C(=O)OC(COc2ccccc2)Cn2ccnc2)cc1", "note": "(stereo not drawn)", "Potency": "inconclusive: 25.1 µM [inhibitor, partial curve, poor fit]"},
      {"smiles": "CC1CCCN(C(=O)CSc2nnc(-c3cccs3)n2N)C1", "note": "(stereo not drawn)", "Potency": "inactive"},
      {"smiles": "C=CCSC1=N/C(=C\\C=C\\c2ccco2)C(=O)S1", "Potency": "inconclusive: 35.5 µM [inhibitor, partial curve, poor fit]"},
      {"smiles": "CC(=O)OCC(=O)[C@@]12N=C(C)O[C@H]1C[C@H]1[C@@H]3CCC4=CC(=O)C=C[C@]4(C)[C@@H]3[C@@H](O)C[C@@]12C", "Potency": "inconclusive: 24.3 µM [inhibitor, partial curve, poor fit]"},
      {"smiles": "CNCCCCCCCCSc1nc(C(C)C)ccc1C(=O)c1cccs1", "Potency": "inconclusive: 0.251 µM [inhibitor, full curve, poor fit]"},
      {"smiles": "O=C(Cn1c(NCCO)nc2ccccc21)c1ccc(F)cc1", "Potency": "inconclusive: 79.4 µM [inhibitor, partial curve, poor fit]"},
      {"smiles": "C=CCc1cc(Cl)ccc1OCCCn1ccnc1", "Potency": "inconclusive: 0.501 µM [inhibitor, full curve, poor fit]"},
      {"smiles": "O=C(Cc1ccc(-n2c(=S)[nH]c3ccccc3c2=O)cc1)N1CCC(N2CCCCC2)CC1", "Potency": "inconclusive: 89.1 µM [inhibitor, partial curve, poor fit]"},
      {"smiles": "CCn1c(C)c(C)c2cc(C(=O)NCCCN3CCN(C)CC3)ccc21", "Potency": "inactive"},
      {"smiles": "O=C(CCCn1c(=O)c2sccc2n(Cc2ccc(Cl)cc2)c1=O)NCc1ccc2c(c1)OCO2", "Potency": "inactive"},
      {"smiles": "CC1=C(c2ccc(Cl)cc2)S(=O)(=O)N=C1N1CCC(C(=O)NCCc2ccco2)CC1", "Potency": "inconclusive: 56.2 µM [inhibitor, partial curve, poor fit]"},
      {"smiles": "Cc1scc(CN2CCN(c3ccc(F)cc3)CC2)c1C", "Potency": "inconclusive: 11.2 µM [inhibitor, partial curve, poor fit]"},
      {"smiles": "COc1cc2c(C#N)c(N3CCN(C)CC3)nc(N)c2c(N)n1", "Potency": "inactive"},
      {"smiles": "CSc1ccccc1NC(=O)c1cc(C(C)C)on1", "Potency": "inconclusive: 50.1 µM [inhibitor, partial curve, poor fit]"},
      {"smiles": "C=CCO[C@@H]1CCN2C(=O)c3cc(-c4ccccc4)ccc3NC(=O)[C@H]12", "Potency": "inconclusive: 25.1 µM [inhibitor, full curve]"},
      {"smiles": "CC1CCN(c2nc3c(s2)c(=O)n(C(C)C)c(=O)n3CC(=O)Nc2cccc(Cl)c2)CC1", "Potency": "inactive"}
    ]}
  ]
}
